Measurements reported in the supplement of paper PMC10849652.
Some of the results follow.

By UniProt entry, the sequences of proteins in these tests, tags left out. Where a name states a change or a piece, a line headed by the entry shows the natural chain unless it says otherwise.
UniProt Q13438: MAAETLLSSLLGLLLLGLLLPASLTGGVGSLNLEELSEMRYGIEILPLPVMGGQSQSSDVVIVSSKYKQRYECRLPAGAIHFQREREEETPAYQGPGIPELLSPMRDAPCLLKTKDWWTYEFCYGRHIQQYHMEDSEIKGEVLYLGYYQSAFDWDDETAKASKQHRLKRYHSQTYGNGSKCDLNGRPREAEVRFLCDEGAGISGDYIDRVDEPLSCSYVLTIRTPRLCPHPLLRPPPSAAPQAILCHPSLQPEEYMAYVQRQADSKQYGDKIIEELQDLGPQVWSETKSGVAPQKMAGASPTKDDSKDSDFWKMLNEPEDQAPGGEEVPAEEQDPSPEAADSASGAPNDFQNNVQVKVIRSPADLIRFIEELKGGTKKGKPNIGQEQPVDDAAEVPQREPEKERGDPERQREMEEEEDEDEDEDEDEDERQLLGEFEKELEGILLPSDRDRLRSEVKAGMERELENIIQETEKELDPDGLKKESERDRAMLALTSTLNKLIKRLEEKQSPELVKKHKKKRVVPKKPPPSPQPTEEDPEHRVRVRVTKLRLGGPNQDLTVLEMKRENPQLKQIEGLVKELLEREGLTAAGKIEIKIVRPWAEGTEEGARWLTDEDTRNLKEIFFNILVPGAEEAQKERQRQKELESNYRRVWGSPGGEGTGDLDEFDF
UniProt Q9NWT1: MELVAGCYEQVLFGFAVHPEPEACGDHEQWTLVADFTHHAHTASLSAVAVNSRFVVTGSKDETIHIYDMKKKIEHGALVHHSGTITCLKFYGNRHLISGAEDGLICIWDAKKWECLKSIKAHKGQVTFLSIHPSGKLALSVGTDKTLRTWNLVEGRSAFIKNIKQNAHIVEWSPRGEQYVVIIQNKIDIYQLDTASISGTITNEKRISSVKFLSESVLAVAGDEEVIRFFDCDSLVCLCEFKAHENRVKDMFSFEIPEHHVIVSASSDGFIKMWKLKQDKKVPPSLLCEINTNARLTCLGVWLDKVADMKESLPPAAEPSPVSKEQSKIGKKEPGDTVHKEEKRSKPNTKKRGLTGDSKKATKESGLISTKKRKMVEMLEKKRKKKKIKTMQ
UniProt O60829: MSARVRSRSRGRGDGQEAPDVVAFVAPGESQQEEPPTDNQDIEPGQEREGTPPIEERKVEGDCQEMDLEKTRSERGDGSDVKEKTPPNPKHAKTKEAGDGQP
UniProt Q5W0B1: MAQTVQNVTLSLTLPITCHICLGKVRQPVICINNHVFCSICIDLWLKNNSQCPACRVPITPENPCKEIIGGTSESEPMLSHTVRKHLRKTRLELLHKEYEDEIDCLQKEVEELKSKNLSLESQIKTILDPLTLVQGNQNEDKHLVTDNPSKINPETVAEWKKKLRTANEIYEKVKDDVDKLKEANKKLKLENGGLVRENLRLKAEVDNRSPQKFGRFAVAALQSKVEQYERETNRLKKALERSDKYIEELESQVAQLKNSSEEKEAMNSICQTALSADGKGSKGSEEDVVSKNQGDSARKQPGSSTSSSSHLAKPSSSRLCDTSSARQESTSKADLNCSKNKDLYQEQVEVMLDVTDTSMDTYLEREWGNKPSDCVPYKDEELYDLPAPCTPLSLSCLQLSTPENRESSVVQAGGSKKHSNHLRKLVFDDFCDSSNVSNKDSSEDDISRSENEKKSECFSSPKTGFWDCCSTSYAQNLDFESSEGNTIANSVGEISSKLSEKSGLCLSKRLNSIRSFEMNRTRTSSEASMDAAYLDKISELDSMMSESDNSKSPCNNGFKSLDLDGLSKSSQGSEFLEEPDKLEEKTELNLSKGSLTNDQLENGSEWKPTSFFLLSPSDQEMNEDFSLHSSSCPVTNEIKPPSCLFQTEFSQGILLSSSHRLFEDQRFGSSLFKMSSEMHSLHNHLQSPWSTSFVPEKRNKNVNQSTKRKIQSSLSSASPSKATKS
UniProt Q9BZ23: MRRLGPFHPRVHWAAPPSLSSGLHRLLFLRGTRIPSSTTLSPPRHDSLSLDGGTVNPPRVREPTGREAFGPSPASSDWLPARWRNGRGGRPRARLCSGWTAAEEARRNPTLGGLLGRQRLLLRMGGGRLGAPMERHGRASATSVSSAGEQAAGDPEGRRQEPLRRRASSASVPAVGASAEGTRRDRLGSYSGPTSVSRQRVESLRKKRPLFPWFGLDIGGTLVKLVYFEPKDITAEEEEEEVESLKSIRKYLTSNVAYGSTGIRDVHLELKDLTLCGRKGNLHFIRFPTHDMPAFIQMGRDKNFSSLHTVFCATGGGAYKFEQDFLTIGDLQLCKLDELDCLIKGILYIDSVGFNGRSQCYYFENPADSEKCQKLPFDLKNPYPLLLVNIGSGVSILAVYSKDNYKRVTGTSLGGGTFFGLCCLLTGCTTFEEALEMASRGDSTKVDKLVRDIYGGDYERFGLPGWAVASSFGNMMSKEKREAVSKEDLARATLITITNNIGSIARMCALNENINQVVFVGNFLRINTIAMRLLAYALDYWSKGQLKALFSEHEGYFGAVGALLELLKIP
UniProt Q8NFH3: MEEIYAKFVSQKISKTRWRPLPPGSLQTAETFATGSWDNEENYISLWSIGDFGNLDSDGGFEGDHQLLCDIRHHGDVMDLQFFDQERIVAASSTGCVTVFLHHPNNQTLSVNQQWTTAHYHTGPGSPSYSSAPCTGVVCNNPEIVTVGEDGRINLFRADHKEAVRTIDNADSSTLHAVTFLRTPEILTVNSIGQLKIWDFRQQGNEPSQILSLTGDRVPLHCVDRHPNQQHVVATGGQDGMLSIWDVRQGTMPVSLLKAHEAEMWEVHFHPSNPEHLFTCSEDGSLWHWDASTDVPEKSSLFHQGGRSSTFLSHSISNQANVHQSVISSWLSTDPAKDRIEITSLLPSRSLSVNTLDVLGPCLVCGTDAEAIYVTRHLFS
UniProt P04181: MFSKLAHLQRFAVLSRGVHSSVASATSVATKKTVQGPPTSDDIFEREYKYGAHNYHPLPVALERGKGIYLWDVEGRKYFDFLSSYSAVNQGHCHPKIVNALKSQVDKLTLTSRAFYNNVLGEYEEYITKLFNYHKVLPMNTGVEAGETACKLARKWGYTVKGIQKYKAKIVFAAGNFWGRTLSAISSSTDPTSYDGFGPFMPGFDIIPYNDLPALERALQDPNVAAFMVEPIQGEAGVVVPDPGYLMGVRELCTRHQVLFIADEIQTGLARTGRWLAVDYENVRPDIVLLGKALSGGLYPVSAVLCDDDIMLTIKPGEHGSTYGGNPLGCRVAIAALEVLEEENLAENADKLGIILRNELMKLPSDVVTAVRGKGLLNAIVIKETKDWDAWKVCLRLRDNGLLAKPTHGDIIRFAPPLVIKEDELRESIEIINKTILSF

Key:
Assay in all cases: log2 fold change, soluble protein after heating vs DMSO (PISA); higher = thermal stabilisation; K562 lysate, 10 uM; active = over 0.2 and 3.5 SD of the protein, either way, in both replicates (recomputed)
vemurafenib = compound: CCCS(=O)(=O)Nc1ccc(F)c(C(=O)c2c[nH]c3ncc(-c4ccc(Cl)cc4)cc23)c1F [vemurafenib]
In short: (§1)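 To prepare the extract, K562 pellets were dounce-homogenised in PBS pH 7.4 with 1 mM MgCl2, giving crude material at 1 mg/mL protein. This was treated with 10 μM compound for 30 min, then heated in aliquots for 3 min over 48°C-58°C before pooling and addition of NP-40 to 0.5% at 4°C. Centrifugation at 21,000xg for 90 min left soluble protein in the supernatant, which TMTpro 16plex LC-MS/MS quantified with equalised channel sums. Results are log-two fold changes in thermal stability compared with solvent controls, from duplicates.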

[1] = compound: CCCS(=O)(=O)Nc1ccc(F)c(C(=O)c2c[nH]c3ncc(Cl)cc23)c1F
In short: as §1

barasertib = compound: CCN(CCCOc1ccc2c(Nc3cc(CC(=O)Nc4cccc(F)c4)[nH]n3)ncnc2c1)CCOP(=O)(O)O [barasertib]
In short: as §1

[2] = compound: CC[C@@H]1C(=O)N(C)c2cnc(Nc3ccc(C(=O)NC4CCN(C)CC4)cc3OC)nc2N1C1CCCC1
In short: as §1

volasertib = compound: CC[C@@H]1C(=O)N(C)c2cnc(Nc3ccc(C(=O)N[C@H]4CC[C@H](N5CCN(CC6CC6)CC5)CC4)cc3OC)nc2N1C(C)C [volasertib]
In short: as §1

[3] = compound: CCn1c(C(=O)N(C2CC2)C2CC2)cc2c3c(ncn3C)c(Nc3cc(C)n(C)n3)nc21
In short: as §1

[4] = compound: CCn1cc(-c2ccnc3[nH]c(-c4cccc(CN(C)C)c4)cc23)c(-c2ccc(NC(=O)N(C)C)cc2)n1
In short: as §1

[5] = compound: CN1CCC(CNc2ccc3ncc(-c4cccc(OC(F)(F)F)c4)n3n2)CC1
In short: as §1

saracatinib = compound: CN1CCN(CCOc2cc(OC3CCOCC3)c3c(Nc4c(Cl)ccc5c4OCO5)ncnc3c2)CC1 [saracatinib]
In short: as §1

sotrastaurin = compound: CN1CCN(c2nc(C3=C(c4c[nH]c5ccccc45)C(=O)NC3=O)c3ccccc3n2)CC1 [sotrastaurin]
In short: as §1

alvocidib = compound: CN1CC[C@H](c2c(O)cc(O)c3c(=O)cc(-c4ccccc4Cl)oc23)[C@H](O)C1 [alvocidib]
In short: as §1

Tubastatin A = compound: CN1CCc2c(c3ccccc3n2Cc2ccc(C(=O)NO)cc2)C1 [Tubastatin A]
In short: as §1

[6] = compound: CNC(=O)C1=CC=CC=C1NC2=NC(=NC=C2Cl)NC3=C(C=C(C=C3)N4CCOCC4)OC
In short: as §1

defactinib = compound: CNC(=O)c1ccc(Nc2ncc(C(F)(F)F)c(NCc3nccnc3N(C)S(C)(=O)=O)n2)cc1 [defactinib]
In short: as §1

[7] = compound: CNc1nc(-c2ccc3c(N)n[nH]c3c2)cc(N2C[C@@H](C(=O)NC3CCCCC3)CC[C@H]2C)n1
In short: as §1

encorafenib = compound: COC(=O)N[C@@H](C)CNc1nccc(-c2cn(C(C)C)nc2-c2cc(Cl)cc(NS(C)(=O)=O)c2F)n1 [encorafenib]
In short: as §1

[8] = compound: COC(=O)[C@H](CCSC)NC(=O)C1=C(C=C(C=C1)NC[C@H](CS)N)C2=CC=CC=C2
In short: as §1

alisertib = compound: COc1cc(Nc2ncc3c(n2)-c2ccc(Cl)cc2C(c2c(F)cccc2OC)=NC3)ccc1C(=O)O [alisertib]
In short: as §1

[9] = compound: COc1cc2nc(-c3cc(F)ccc3O)nc(N[C@@H]3CNC[C@H]3C(C)(C)O)c2cc1OC
In short: as §1

gefitinib = compound: COc1cc2ncnc(Nc3ccc(F)c(Cl)c3)c2cc1OCCCN1CCOCC1 [gefitinib]
In short: as §1

Target	log2 fold change (vemurafenib)	log2 fold change [1]	log2 fold change (barasertib)	log2 fold change [2]	log2 fold change (volasertib)	log2 fold change [3]	log2 fold change [4]	log2 fold change [5]	log2 fold change (saracatinib)	log2 fold change (sotrastaurin)	log2 fold change (alvocidib)	log2 fold change (Tubastatin A)	log2 fold change [6]	log2 fold change (defactinib)	log2 fold change [7]	log2 fold change (encorafenib)	log2 fold change [8]	log2 fold change (alisertib)	log2 fold change [9]	log2 fold change (gefitinib)
OS9 (UniProt Q13438)	inactive: 0.024	inactive: 0.021	inactive: -0.009	inactive: -0.008	inactive: 0.004	inactive: 0.013	inactive: -0.081	inactive: 0.037	inactive: -0.012	inactive: 0.006	inactive: -0.013	inactive: 0.002	inactive: 0.001	inactive: -0.022	inactive: 0.006	inactive: -0.006	inactive: -0.04	inactive: -0.006	inactive: 0.012	inactive: 0.013
PAK1IP1 (UniProt Q9NWT1)	inactive: -0.016	inactive: 0.014	inactive: 0.033	inactive: -0.037	inactive: 0.016	inactive: -0.004	inactive: -0.018	inactive: 0.022	inactive: 0.025	inactive: 0.036	inactive: 0.042	inactive: 0.007	inactive: 0.02	inactive: -0.01	inactive: 0.046	inactive: 0.003	inactive: -0.027	inactive: -0.023	inactive: 0.015	inactive: -0.009
PAGE4 (UniProt O60829)	–	inactive: 0.015	inactive: 0.108	inactive: 0.039	inactive: 0.002	inactive: -0.042	inactive: 0.476	inactive: -0.158	inactive: 0.046	inactive: 0.092	inactive: 0.086	inactive: 0.027	inactive: -0.072	–	inactive: -0.038	inactive: -0.005	inactive: -0.086	–	inactive: 0.057	–
OBI1 (UniProt Q5W0B1)	inactive: -0.125	inactive: -0.02	inactive: 0.165	inactive: -0.079	inactive: -0.126	inactive: 0.04	inactive: 0.104	inactive: -0.119	inactive: 0.041	inactive: 0.024	inactive: 0.005	inactive: -0.113	inactive: 0.096	inactive: 0	inactive: -0.002	inactive: -0.098	inactive: -0.042	inactive: -0.02	inactive: -0.032	inactive: -0.011
PANK2 (UniProt Q9BZ23)	inactive: 0.093	inactive: -0.036	inactive: -0.047	inactive: 0.011	inactive: -0.086	inactive: 0.002	inactive: -0.167	inactive: -0.057	inactive: 0.068	inactive: 0.027	inactive: 0.057	inactive: 0.108	–	inactive: 0.023	inactive: 0	inactive: -0.01	inactive: 0.014	active: 0.35	inactive: -0.046	inactive: -0.233
NUP43 (UniProt Q8NFH3)	inactive: 0.007	inactive: 0.027	inactive: -0.019	inactive: 0.081	inactive: 0.009	inactive: -0.036	inactive: -0.099	inactive: 0.06	inactive: 0.012	inactive: 0.004	inactive: -0.003	inactive: 0.019	inactive: 0.018	inactive: -0.022	inactive: 0.055	inactive: -0.003	inactive: -0.041	inactive: 0.023	inactive: 0.013	inactive: -0.041
OAT (UniProt P04181)	inactive: 0.066	inactive: 0.003	inactive: -0.012	inactive: -0.019	inactive: -0.014	inactive: -0.006	inactive: -0.119	inactive: 0.014	inactive: -0.004	inactive: -0.024	inactive: -0.023	inactive: -0.016	inactive: -0.03	inactive: -0.016	inactive: -0.023	inactive: -0.022	inactive: 0.091	inactive: 0.036	inactive: 0.006	inactive: 0.008
